Assay results from patent publication US20080131920A1, “Ion flux in biological processes, and methods related thereto” (priority 2005, published 2008).
At least one compound was matched to its structure with a doubt left.

Test system: H+ flux from living early blastomeres
Assay: Self-referencing ion-selective (Seris) probe measurement of H+ flux
Type: in vivo, Xenopus laevis
Conditions: 0.27 μM
From the text: We examined ion flux using a self-referencing ion probe to measure H^+ flux from living early blastomeres. The H^+-V-ATPase endogenously acts to pump protons out of the cell (e.g., it mediates proton efflux). We note, however, that other ion transporters modulate influx of ions. The term ion flux refers to movement of ions across membranes, regardless of the direction. The techniques provided herein can be used to evaluate changes in either ion efflux or influx, and thus can generally be used to evaluate ion flux and changes in ion flux following manipulation of an ion transporter protein or a class of ion transporter proteins.
To confirm that the asymmetric efflux was due to asymmetric H^+-V-ATPase function, we compared H^+ efflux in control embryos to efflux from embryos treated with a variety of ion flux inhibitors.
The self-referencing ion-selective (Seris) probe consists of an ion selective microelectrode that is translated between two points in the extracellular space near the plasma membrane of a cell. If a net flux of ion into or out of the cell is detected, the resultant concentration gradient will be detected as a voltage difference from which the ion flux through the membrane can be calculated. […]. […]

## COc1ccc2[nH]c([S+]([O-])Cc3ncc(C)c(OC)c3C)nc2c1 (stereo not shown) [Omeprazole]
  absolute net proton fluxes and right/left ratios: Neither the absolute net proton fluxes nor their right/left ratios were affected
